## Primary screen of a compound library

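Assay on Mycobacterium tuberculosis, filed only as a heat shock assay from Cornell; the read-out is not stated. The concentration is filed as 10 mM, unlikely as a test dose, so the dose is not known. The record gives no direction; compounds that gave an IC50 in retests scored well above the rest, so higher reads as stronger inhibition. Size under these conditions: about 69,000 compounds, about 930 of them at 50% or above in at least one test.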

Results are given as percent effect.
The controls that fix the scale are not given in the record; negative values are as filed.
The compounds are a random part of those screened.

Compound | effect
CSc1ccc(CN(C)Cc2noc(C(C)(C)C)n2)cc1 | -10.72
Cc1n[nH]c(C)c1CCC(=O)NCC1(O)CCN(c2ccccn2)C1 (stereo not given) | -19.22
O=C(NCC1CC1)C1=NOC2(CCN(Cc3ccsc3)C2)C1 (stereo not given) | 4.77
Cc1nn(C)c2c(=O)n(C)c(NCC3CCCO3)nc12 (stereo not given) | 13.04
O=C(O)C(F)(F)F.O=C(O)C(F)(F)F.[H][C@@]12CCCO[C@]1([H])[C@@H](OCc1cccnc1)CN2c1nnc(C)s1 | -29.3
NC(=O)C1CCN(C(=O)CCn2c(C(F)(F)F)cc3cccnc32)CC1 | -5.063
CCOc1ccc(C2SCC(=O)Nc3c2c(=O)[nH]n3C(CC)CC)cc1 (stereo not given) | 9.904
CCCS(=O)(=O)N1CCN(c2cc(-n3cnc(C)c3C)ncn2)CC1 | -19.01
Cc1ccc(-c2cc(C(=O)NCCN3CCCS3(=O)=O)[nH]n2)o1 | 4.33
CC(C)c1cc2c(O)nc(CSCC(=O)NCc3ccccn3)nc2s1 | 3.171
[H][C@@]12CCCO[C@]1([H])[C@H](OCC(=O)N(C)C)CN2Cc1c(C)noc1C | 3.749
O=C(O)CC(O)(CC(=O)O)C(=O)O.[H][C@@]12CC[C@@](O)(c3ccccn3)[C@]1([H])CN(Cc1ccccn1)C2 | 3.038
CC(C)CN1CC(O)CN(S(=O)(=O)c2ccc(F)cc2)CC1=O (stereo not given) | 48.26
COc1cc(CNC2CCc3nc(C)nn3C2)cc2c1OCO2 (stereo not given) | 3.54
CCCOC(C)Cn1ccc2[nH]c(=O)c(C#N)cc2c1=O (stereo not given) | -2.906
CCC(C(=O)NCC1CCN(c2ccncc2)CC1)N(C)C (stereo not given) | -38.53
COCC(C)(C)NC(=O)CC(c1ccccc1)C(F)(F)F (stereo not given) | 2.013
CN1CCN(Cc2ccoc2)Cc2cccnc21 | 5.755
CN(C)c1cccc(C2CCCN2CCCN2CCOC2=O)c1 (stereo not given) | -7.815
Cc1nc(Nc2cnccn2)cc(C2CCN(CCO)C2)n1.O=CO (stereo not given) | -2.318
COc1cn(-c2ccccc2)nc1C(=O)NCCN1CCCC(C)C1 (stereo not given) | 6.673
CCc1ccc(NC(C(N)=O)c2ccc(F)cc2)cc1 (stereo not given) | 22.43
Cc1cc(F)ccc1CN1CCCC(O)(CN2CCCC2)C1 (stereo not given) | -17.17
Cc1nn(C(C)(C)C)c(=O)n1CC(=O)NCC(F)(F)F | -3.493
Cc1nc(CN2CCC23CCN(C(=O)c2ccco2)CC3)cs1 | -3.59
Cn1cnc(S(=O)(=O)N2CCN(CC3CC3)c3ncccc3C2)c1.O=C(O)C(F)(F)F.O=C(O)C(F)(F)F | 2.523
Cc1ccc(NC2CCN(C(=O)CCCc3ccccn3)CC2)nn1 | -10.38
COCCN1CC(O)CN(C(=O)c2cccc(C(F)(F)F)c2)CC1=O (stereo not given) | 28.64
O=C(NCC(=O)N1CCc2ccccc2C1)c1cnccn1 | -28.75
O=S(=O)(N1CCCCC1)N1CCOC2(CCCC2)C1 | -7.458
CCn1cc(N2Cc3nc(N4CCCC4)ncc3C2=O)cn1 | 8.328
COc1cccc2c1OCC(NC(=O)NCCc1ccccn1)C2 (stereo not given) | -22.52
Cc1noc(C2CCN(C(=O)CCNS(C)(=O)=O)CC2)n1 | -8.681
Cn1cnnc1C1CCN(C(=O)CCCOc2ccccc2F)CC1 | -14.87
Cc1cc(C)nc(Nc2nccnc2C2CCCN(CCO)C2)n1 (stereo not given) | -4.871
CSC(C)CCN1CCC(n2cc(C3CCCCC3)nn2)CC1 (stereo not given) | -9.197
CCC(=O)NC1CCCN(Cn2nc(C(C)(C)C)ccc2=O)C1 (stereo not given) | 4.399
CCN1CC2(CCC1=O)CCN(Cc1cccc(C#N)c1)CC2 | -0.2884
COCCCN(CCOC)C(=O)Nc1ccccc1-n1cccn1 | 3.42
CCc1nccn1C1CCCN(C(=O)CCCNc2ncccn2)C1 (stereo not given) | 4.011
COc1ccc(-n2cccn2)cc1S(=O)(=O)N1C[C@H](C2CC2)[C@@H](N)C1 | 22.7
Cc1nc(C)n(CC2CN(Cc3ccccc3OC(C)C)CCO2)n1 (stereo not given) | -1.031
C[C@@H]1CN(Cc2cc(C(F)(F)F)ccc2F)CC[C@@]1(O)C1CC1 | -12.69
Cc1[nH]/c(=N\C(=O)c2csc(NC3CCCC3)n2)sc1C | 101.9
Cc1ccsc1C(CNC(=O)c1cc(=O)c2ccccc2[nH]1)N(C)C (stereo not given) | 8.971
[H][C@@]12CS(=O)(=O)C[C@]1([H])N(C(=O)N(C)C)CCN2Cc1ccccc1 | -25.12
CC1c2ncc(Cn3cncn3)n2CCN1C(=O)C1CCOCC1 (stereo not given) | 6.15
CCc1nc(C2CCCN2CC(=O)N2CCCc3ccccc32)no1 (stereo not given) | -10.52
COc1cc(-n2cccc2)c(Cl)cc1C(N)=O | -9.375
Cc1nc(NCc2coc(-c3ccccc3)n2)cc(C2CCNCC2)n1 | -12.94
Cn1cc(C(=O)N2CCC(Cc3nccs3)CC2)cn1 | -21.03
Cc1cc(CNc2ccnn2CC(C)C)ccc1-n1cncn1 | -10.2
COCCOc1ncccc1C(=O)N(C)c1ccc(OC)nc1 | 7.086
Cc1ccccc1NC(=O)Nc1c[nH]c(=O)[nH]c1=O | 7.153
O=C(c1ncc(F)cc1F)N1CCC(c2ncc[nH]2)CC1 | -2.95
CN(Cc1cc(Br)cn1C)C(=O)c1cscn1 | 11.01
c1csc(-c2noc(CN3CCc4cncnc4C3)n2)c1 | 8.724
CCn1cc(SCC(=O)N2CCCC(O)(CO)C2)c2ccccc21 (stereo not given) | 12
Cc1cc(-c2ccc(=O)n(C3CCN(S(=O)(=O)N(C)C)CC3)n2)c(C)o1 | 15.3
Cc1cnn(CC(=O)NCC2(O)CCCc3ccccc32)c1 (stereo not given) | -14.15
CC(=O)N1CCC(c2n[nH]cc2-c2ccnc(N)c2)C1 (stereo not given) | -26.39
COC(=O)CCn1ccc(=O)c2ccc(OC)cc21 | -9.42
CC(C)c1ccc(NC(=O)Cn2cc(I)cn2)cc1 | 20.46
Cc1oncc1C(=O)N1CCC2(CCN(Cc3cccc(F)c3)C2=O)C1 (stereo not given) | -12.41
CC(C)OCCS(=O)(=O)c1ccccc1C#N | -13.71
CCc1ccc(CNC(=O)c2ccc(N3CCOC3=O)cc2)s1 | -11.03
Cn1cc(C[C@H]2[C@H](O)CCN2Cc2ccncc2)cn1.O=C(O)C(F)(F)F.O=C(O)C(F)(F)F | -7.192
CCCN1CCCC(O)(c2nc(C)c(COc3ccccc3)s2)CC1 (stereo not given) | -7.031
CN(Cc1nc2ccccc2n1C)CC1CCCN1c1cccnn1 (stereo not given) | 101.2
Cn1ccc(CN2CCN(CC3CC3)CC2)cc1=O | -54.01
O=C(COCc1ccccc1)NCc1ccc(O)c(F)c1 | 12.01
CCOc1cc(C(=O)N2CCCC(c3noc(C(C)C)n3)C2)ccn1 (stereo not given) | -8.045
CCOc1cccc(C(C)NCc2c(C)nn(C)c2N(C)C)c1 (stereo not given) | -0.7429
CN1CCC(c2nnc3n2CCN(S(=O)(=O)c2ccccc2)C3)CC1 | -13.17
N#Cc1ccc(S(=O)(=O)N2CSCC2C(=O)NCC(F)(F)F)cc1 (stereo not given) | -14.83
Cc1c(C(C)NC2CSCCSC2)cnn1-c1ccc(F)cc1F (stereo not given) | -14.7
O=C(C1CCOc2ccccc2C1)N1Cc2cnn(CCO)c2C1 (stereo not given) | -7.248
CCN1CCOCC2(CCCN(C(=O)c3ccncc3F)C2)C1.O=C(O)C(F)(F)F (stereo not given) | -0.7478
CC(=O)N1N=C(c2cccs2)OC1C(=O)NCc1ccc(C)o1 (stereo not given) | 19.84
CC(C)c1nc(C2CCCN2Cc2ccno2)no1 (stereo not given) | -6.637
CC(=O)N1CCCN(C(=O)C(C)n2cncn2)CC1 (stereo not given) | 2.736

Repeated from the top, 9 entries:

Compound,effect
CSc1ccc(CN(C)Cc2noc(C(C)(C)C)n2)cc1,-10.72
Cc1n[nH]c(C)c1CCC(=O)NCC1(O)CCN(c2ccccn2)C1 (stereo not given),-19.22
O=C(NCC1CC1)C1=NOC2(CCN(Cc3ccsc3)C2)C1 (stereo not given),4.77
Cc1nn(C)c2c(=O)n(C)c(NCC3CCCO3)nc12 (stereo not given),13.04
O=C(O)C(F)(F)F.O=C(O)C(F)(F)F.[H][C@@]12CCCO[C@]1([H])[C@@H](OCc1cccnc1)CN2c1nnc(C)s1,-29.3
NC(=O)C1CCN(C(=O)CCn2c(C(F)(F)F)cc3cccnc32)CC1,-5.063
CCOc1ccc(C2SCC(=O)Nc3c2c(=O)[nH]n3C(CC)CC)cc1 (stereo not given),9.904
CCCS(=O)(=O)N1CCN(c2cc(-n3cnc(C)c3C)ncn2)CC1,-19.01
Cc1ccc(-c2cc(C(=O)NCCN3CCCS3(=O)=O)[nH]n2)o1,4.33

From ChEMBL document CHEMBL3988442, “University of Dundee, Small-Polar-MMV Screening Library” (2021).